Assay results reported in the supplement of paper PMC12819154, “High-throughput peptide-centric local stability assay extends protein–ligand identification to membrane proteins, tissues and bacteria” (Nature Structural & Molecular Biology, 2025).
This is one part of the list. Most values lie at the level of the controls, where differences are scatter.

Amino acid sequences for entries named in this document (tags omitted). A change or cut given only in a name is not applied to a line headed by its entry.
UniProt Q02105: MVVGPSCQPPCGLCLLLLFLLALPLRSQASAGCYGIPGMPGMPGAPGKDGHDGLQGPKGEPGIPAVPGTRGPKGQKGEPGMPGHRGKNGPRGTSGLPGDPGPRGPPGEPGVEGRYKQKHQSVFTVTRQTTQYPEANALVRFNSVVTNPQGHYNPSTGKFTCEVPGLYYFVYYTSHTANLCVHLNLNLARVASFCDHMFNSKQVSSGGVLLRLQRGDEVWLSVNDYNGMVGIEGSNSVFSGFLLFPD
UniProt P70168, whole entry: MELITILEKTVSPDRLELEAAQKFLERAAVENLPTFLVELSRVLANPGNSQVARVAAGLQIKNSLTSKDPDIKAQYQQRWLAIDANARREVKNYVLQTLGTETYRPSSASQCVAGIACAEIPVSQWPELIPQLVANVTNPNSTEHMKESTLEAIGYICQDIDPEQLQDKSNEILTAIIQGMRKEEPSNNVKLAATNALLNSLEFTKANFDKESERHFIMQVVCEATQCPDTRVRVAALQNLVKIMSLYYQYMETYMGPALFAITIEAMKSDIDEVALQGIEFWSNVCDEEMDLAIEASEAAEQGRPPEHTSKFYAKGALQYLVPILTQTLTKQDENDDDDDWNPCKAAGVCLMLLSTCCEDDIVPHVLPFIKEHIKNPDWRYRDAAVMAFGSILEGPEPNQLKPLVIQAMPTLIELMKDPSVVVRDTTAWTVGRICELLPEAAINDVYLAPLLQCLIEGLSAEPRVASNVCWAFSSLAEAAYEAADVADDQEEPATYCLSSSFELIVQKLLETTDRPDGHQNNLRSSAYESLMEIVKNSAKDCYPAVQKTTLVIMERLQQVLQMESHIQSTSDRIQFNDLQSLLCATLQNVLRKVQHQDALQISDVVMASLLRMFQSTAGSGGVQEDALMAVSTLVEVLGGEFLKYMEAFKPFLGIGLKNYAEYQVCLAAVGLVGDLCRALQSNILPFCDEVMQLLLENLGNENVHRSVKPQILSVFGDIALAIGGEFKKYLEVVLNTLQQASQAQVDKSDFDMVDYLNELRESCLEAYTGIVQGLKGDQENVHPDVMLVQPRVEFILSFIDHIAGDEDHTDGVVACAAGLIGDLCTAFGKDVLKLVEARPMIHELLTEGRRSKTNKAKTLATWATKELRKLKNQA
UniProt Q01063: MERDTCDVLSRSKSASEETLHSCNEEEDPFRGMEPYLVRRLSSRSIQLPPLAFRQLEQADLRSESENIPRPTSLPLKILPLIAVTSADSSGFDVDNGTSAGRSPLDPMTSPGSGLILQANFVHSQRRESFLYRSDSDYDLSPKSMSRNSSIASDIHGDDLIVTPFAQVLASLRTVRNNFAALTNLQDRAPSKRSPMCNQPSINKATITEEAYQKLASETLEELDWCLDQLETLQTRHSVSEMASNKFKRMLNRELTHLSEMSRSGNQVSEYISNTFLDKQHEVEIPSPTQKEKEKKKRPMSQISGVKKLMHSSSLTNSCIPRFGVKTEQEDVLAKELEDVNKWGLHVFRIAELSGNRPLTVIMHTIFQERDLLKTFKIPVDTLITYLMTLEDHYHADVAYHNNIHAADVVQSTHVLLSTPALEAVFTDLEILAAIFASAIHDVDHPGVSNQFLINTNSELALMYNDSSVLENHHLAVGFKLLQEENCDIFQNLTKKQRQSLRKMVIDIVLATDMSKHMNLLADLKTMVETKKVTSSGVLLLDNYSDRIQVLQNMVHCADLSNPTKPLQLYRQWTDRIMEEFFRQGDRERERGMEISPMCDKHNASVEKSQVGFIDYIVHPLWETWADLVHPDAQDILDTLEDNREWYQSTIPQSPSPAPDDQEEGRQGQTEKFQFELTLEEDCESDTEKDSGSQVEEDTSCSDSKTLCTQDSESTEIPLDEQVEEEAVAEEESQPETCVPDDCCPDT
UniProt P70380: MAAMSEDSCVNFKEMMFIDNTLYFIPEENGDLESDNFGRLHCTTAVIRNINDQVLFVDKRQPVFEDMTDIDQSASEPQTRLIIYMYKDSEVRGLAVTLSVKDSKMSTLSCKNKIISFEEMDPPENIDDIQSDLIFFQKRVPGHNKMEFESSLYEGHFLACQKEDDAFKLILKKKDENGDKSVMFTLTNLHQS
UniProt P70296: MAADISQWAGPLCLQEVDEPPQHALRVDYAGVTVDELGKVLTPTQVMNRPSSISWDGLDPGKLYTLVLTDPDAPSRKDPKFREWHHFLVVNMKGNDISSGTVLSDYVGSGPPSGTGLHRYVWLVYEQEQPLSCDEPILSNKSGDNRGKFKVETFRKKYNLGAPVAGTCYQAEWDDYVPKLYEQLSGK
UniProt P97305: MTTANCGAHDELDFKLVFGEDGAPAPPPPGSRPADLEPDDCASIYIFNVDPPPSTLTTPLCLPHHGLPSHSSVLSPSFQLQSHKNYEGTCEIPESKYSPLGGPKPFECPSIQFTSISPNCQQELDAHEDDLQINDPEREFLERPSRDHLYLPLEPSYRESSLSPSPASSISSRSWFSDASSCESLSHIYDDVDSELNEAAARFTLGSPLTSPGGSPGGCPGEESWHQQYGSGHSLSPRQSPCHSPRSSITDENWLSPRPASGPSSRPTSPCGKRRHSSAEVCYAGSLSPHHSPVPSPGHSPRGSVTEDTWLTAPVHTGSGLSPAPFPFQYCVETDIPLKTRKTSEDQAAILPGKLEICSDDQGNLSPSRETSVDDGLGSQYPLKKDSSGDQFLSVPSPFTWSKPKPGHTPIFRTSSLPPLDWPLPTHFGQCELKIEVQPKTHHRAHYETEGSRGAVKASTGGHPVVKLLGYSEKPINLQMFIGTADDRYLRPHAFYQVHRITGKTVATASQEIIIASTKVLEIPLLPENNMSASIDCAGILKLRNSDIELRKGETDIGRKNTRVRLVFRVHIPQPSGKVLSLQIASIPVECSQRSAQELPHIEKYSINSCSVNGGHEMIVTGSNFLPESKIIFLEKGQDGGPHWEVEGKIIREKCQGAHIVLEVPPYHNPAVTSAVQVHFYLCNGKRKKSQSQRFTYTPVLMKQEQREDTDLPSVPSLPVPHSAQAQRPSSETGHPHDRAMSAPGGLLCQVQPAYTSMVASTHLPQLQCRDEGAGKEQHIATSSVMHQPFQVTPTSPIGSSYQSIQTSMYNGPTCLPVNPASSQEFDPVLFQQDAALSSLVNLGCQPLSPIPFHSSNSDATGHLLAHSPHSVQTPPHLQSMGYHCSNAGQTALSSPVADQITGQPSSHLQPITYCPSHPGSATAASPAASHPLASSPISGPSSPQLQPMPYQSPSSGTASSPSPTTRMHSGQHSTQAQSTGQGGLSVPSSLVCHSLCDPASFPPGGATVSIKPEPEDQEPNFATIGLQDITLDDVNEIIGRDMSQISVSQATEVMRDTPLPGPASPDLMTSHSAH
UniProt P70429, whole entry: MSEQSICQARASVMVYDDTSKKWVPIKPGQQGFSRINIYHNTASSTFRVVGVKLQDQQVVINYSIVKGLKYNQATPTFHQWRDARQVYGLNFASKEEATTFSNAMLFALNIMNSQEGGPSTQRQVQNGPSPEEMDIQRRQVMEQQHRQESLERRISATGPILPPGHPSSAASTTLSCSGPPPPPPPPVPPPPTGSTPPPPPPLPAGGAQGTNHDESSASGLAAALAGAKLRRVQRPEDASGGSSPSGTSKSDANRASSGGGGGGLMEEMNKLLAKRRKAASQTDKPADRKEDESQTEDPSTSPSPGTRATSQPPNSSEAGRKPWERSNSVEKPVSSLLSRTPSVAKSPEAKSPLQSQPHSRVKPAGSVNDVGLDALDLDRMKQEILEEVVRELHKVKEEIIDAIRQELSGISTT
UniProt P70302, whole entry: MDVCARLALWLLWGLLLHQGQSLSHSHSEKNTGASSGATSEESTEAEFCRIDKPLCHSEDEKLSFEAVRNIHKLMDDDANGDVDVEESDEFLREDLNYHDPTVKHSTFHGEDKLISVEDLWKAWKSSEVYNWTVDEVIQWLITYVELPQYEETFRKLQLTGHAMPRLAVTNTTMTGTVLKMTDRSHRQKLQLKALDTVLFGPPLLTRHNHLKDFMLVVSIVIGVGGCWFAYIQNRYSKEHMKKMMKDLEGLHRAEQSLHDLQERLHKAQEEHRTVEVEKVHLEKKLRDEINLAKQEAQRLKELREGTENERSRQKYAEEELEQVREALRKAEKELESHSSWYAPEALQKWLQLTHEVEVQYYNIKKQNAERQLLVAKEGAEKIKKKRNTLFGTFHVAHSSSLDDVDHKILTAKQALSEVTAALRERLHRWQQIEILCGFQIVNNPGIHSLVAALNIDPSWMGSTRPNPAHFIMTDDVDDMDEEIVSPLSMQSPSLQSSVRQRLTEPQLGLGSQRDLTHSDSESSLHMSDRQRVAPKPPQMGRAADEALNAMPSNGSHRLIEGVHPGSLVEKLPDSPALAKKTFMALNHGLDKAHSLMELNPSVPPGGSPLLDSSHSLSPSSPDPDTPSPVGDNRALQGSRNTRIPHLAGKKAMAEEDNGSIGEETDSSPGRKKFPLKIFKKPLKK
UniProt P70444: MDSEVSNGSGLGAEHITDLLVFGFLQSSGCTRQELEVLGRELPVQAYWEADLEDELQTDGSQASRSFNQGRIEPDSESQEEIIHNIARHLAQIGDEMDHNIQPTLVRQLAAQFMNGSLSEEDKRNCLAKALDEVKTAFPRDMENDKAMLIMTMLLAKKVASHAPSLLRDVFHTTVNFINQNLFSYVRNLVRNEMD
UniProt P70434: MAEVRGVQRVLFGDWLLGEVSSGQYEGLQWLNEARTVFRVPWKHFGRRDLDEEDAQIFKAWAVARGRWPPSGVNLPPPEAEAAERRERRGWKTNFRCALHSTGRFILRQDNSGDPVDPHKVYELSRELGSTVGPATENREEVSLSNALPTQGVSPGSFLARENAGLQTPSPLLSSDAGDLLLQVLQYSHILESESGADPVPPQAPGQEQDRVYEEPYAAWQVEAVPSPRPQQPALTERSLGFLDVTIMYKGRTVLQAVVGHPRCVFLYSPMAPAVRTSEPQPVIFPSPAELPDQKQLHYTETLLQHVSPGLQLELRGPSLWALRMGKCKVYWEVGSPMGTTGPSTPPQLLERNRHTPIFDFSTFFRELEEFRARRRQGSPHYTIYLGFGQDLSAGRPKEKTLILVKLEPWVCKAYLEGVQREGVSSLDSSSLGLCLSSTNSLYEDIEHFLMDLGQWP
UniProt P97303: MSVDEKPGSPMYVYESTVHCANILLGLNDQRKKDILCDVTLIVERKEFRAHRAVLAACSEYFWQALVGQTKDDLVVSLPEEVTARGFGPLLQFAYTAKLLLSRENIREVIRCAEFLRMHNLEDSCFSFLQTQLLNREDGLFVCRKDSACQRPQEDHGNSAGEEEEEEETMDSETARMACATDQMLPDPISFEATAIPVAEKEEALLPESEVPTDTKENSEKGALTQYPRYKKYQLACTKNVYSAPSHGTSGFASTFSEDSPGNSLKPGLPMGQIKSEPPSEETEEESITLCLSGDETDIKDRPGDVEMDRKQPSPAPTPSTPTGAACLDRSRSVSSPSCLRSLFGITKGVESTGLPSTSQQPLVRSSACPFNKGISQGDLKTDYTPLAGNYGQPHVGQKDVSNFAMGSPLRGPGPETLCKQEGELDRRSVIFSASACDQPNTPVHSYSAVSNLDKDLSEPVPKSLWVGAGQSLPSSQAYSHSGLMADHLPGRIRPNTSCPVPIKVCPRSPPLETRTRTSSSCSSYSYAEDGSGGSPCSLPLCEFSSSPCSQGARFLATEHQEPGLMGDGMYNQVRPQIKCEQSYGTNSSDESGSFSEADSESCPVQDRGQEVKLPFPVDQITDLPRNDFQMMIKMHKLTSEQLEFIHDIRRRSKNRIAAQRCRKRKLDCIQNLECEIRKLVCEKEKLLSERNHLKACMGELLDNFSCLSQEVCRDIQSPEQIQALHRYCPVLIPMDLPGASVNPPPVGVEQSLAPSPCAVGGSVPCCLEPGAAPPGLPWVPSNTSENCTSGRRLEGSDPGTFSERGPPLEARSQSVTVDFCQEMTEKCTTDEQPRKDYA
UniProt P82198: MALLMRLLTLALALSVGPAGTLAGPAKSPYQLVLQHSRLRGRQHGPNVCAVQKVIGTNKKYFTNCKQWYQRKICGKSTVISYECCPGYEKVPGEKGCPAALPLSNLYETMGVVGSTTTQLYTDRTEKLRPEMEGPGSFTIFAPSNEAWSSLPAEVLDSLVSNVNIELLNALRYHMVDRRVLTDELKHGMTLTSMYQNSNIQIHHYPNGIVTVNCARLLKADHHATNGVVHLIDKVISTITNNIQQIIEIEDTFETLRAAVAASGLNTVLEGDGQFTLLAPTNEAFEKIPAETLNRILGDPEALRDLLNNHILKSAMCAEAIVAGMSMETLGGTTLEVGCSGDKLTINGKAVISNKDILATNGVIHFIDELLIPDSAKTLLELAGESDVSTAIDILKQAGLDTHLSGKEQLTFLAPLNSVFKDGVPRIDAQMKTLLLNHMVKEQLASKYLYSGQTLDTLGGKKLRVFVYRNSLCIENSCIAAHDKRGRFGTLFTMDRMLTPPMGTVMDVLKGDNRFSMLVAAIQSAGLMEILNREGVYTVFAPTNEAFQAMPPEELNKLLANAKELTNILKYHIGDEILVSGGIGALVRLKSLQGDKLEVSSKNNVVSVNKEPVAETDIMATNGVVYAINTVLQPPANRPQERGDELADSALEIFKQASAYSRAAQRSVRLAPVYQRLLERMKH

What follows are targets tested with CN[C@@H]1C[C@H]2O[C@@](C)([C@@H]1OC)n1c3ccccc3c3c4c(c5c6ccccc6n2c5c31)C(=O)NC4 [staurosporine] (assay: log2 fold change of tryptic peptide abundance, ligand vs vehicle (limited proteolysis) (log2 ratio); higher = more trypsin-susceptible (destabilized)). Conditions: ligand concentration: 20 uM; sample: mouse liver crude lysate; replicate design: treated separately.

Target	log2 fold change
UniProt Q02105 (peptide sequence: GTSGLPGDPGPR, peptide start residue: 92)	-0.0996
UniProt P70168 (peptide sequence: ANFDKESER, peptide start residue: 207)	-1.09
UniProt Q01149 (peptide sequence: SQPSLRPK, peptide start residue: 1130)	0.206
UniProt P98064 (peptide sequence: SDEDEQHLHVKR, peptide start residue: 531)	0.544
UniProt Q01063 (peptide sequence: SPMCNQPSINK, peptide start residue: 194)	-0.482
UniProt Q02357 (peptide sequence: LLLENGASPNLATTAGHTPLHTAAR, peptide start residue: 484)	0.53
UniProt P97760 (peptide sequence: ITELTEENVK, peptide start residue: 11)	0.388
UniProt P70380 (peptide sequence: LIIYMYK, peptide start residue: 81)	-0.0658
UniProt P70318 (peptide sequence: FEDVVNQSSPK, peptide start residue: 210)	-0.73
UniProt P70388 (peptide sequence: NEHQKLEENIDTIKR, peptide start residue: 1055)	0.455
UniProt Q00262 (peptide sequence: NVVNSVDYVEHAKEETK, peptide start residue: 236)	0.161
UniProt P70441 (peptide sequence: LLVVDKETDEFFK, peptide start residue: 223)	-0.177
UniProt P97493 (peptide sequence: FVGIKDEDQLEAFLKK, peptide start residue: 148)	0.243
UniProt Q00422 (peptide sequence: YYYDGDMICKVQGK, peptide start residue: 380)	-0.545
UniProt P97460 (peptide sequence: LATPQFLK, peptide start residue: 232)	0.092
UniProt P70296 (peptide sequence: LYTLVLTDPDAPSRKDPK, peptide start residue: 63)	-0.258
UniProt P70257 (peptide sequence: KPPCCVLSNPDQK, peptide start residue: 122)	-0.548
UniProt P97305 (peptide sequence: PASGPSSRPTSPCGK, peptide start residue: 259)	0.421

Reprinted at random: 2 records from the list.
Target	log2 fold change
UniProt P70257 (peptide sequence: KPPCCVLSNPDQK, peptide start residue: 122)	-0.548
UniProt Q01149 (peptide sequence: SQPSLRPK, peptide start residue: 1130)	0.206

(listing goes on)

Target	log2 fold change
UniProt P70429 (peptide sequence: ATSQPPNSSEAGR, peptide start residue: 309)	-0.197
UniProt P98078 (peptide sequence: AKLIGIDDVPDAR, peptide start residue: 52)	-0.398
UniProt P99027 (peptide sequence: ILDSVGIEADDDRLNK, peptide start residue: 26)	-0.101
UniProt Q02526 (peptide sequence: KKPYECGECGR, peptide start residue: 84)	-0.00875
UniProt Q00897 (peptide sequence: SDAQIHIPR, peptide start residue: 300)	0.196
UniProt P70302 (peptide sequence: QALSEVTAALR, peptide start residue: 414)	-0.375
UniProt P70444 (peptide sequence: VASHAPSLLR, peptide start residue: 159)	0.404
UniProt P70324 (peptide sequence: EGPVATKVDEAR, peptide start residue: 460)	-0.542
UniProt P70399 (peptide sequence: AADISLDNLVEGK, peptide start residue: 1611)	0.266
UniProt P99025 (peptide sequence: IVLDKLECK, peptide start residue: 55)	0.0222
UniProt P97784 (peptide sequence: RPSQEEDAQSVGPK, peptide start residue: 586)	0.527
UniProt P97873 (peptide sequence: EVAVGDSTGMAR, peptide start residue: 130)	0.594
UniProt P97324 (peptide sequence: EMVQNLMVLR, peptide start residue: 206)	0.509
UniProt P67778 (peptide sequence: AAIISAEGDSK, peptide start residue: 209)	-0.264
UniProt P80313 (peptide sequence: SLHDAIMIVRR, peptide start residue: 388)	-0.55
UniProt P70434 (peptide sequence: QLHYTETLLQHVSPGLQLELR, peptide start residue: 296)	-0.239
UniProt P97303 (peptide sequence: TDYTPLAGNYGQPHVGQK, peptide start residue: 382)	-0.326
UniProt P82198 (peptide sequence: NSLCIENSCIAAHDKR, peptide start residue: 470)	-0.304
